PubChem BioAssay AID1159578 | Peter MacCallum Cancer Centre | 2015
In all, the deposit lists about 18,000 reagents; below is a part drawn at random. Of all reagents, about 1,030 (5.7%) were called active. 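Inactive calls also include pools with fewer than 3300 nuclei, whose migration was not assessed.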 The raw values are shown without normalisation. Not all columns of the deposit are shown. No sequences are given here.

- Screen: 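Knock-downs that alter how fast lymphatic endothelial cells migrate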 (primary screen)
- System: human lymphatic endothelial cells
- Reagent: siRNA pool against human genes, 40 nM
- Timing: 48 h after transfection
- Detection: 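High-content imaging of dye-stained cells in a scratch assay measures filled wound area and nuclei per well; duplicate means given as ratio to mock and robust z-score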
- Reading the numbers: migration robust z-score: higher = faster migration into the scratch; nuclei per well: higher = more cells in the well
- Active means: 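Migration changed when robust z exceeds 2 or falls below -2 and mean nuclei number is at least 3300; otherwise not called changed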
- Meaning of the calls: active = migration changed; inactive = no migration change, or too few cells

Against HAUS8 (GeneID 93323) the deposit lists migration robust z-score 1.86; nuclei per well, duplicate mean 5908; inactive.
TRIM15 (GeneID 89870) scored migration robust z-score 1.32; nuclei per well, duplicate mean 5976; inactive.
Depletion of PASD1 (GeneID 139135) came out at: migration robust z-score -0.03; nuclei per well, duplicate mean 6710; inactive.
CD320 (GeneID 51293) showed migration robust z-score 2.01; nuclei per well, duplicate mean 7690; active.
Against ZDHHC22 (GeneID 283576), the values are migration robust z-score -0.04; nuclei per well, duplicate mean 5125; inactive.
ADORA1 (GeneID 134) showed migration robust z-score -0.91; nuclei per well, duplicate mean 5276; inactive.
KMO (GeneID 8564) gave migration robust z-score 0; nuclei per well, duplicate mean 6266; inactive.
Silencing of IL10RA (GeneID 3587) resulted in: migration robust z-score 0.75; nuclei per well, duplicate mean 4430; inactive.
TAS2R46 (GeneID 259292) gave migration robust z-score 1.03; nuclei per well, duplicate mean 6524; inactive.
FAM81A (GeneID 145773) showed migration robust z-score 0.8; nuclei per well, duplicate mean 7850; inactive.
Depletion of TNIP3 (GeneID 79931) resulted in: migration robust z-score -0.33; nuclei per well, duplicate mean 5746; inactive.
Knock-down of DCUN1D5 (GeneID 84259) gave: migration robust z-score 0.47; nuclei per well, duplicate mean 5220; inactive.

Reformatted: results already given
{"Target gene": "ZDHHC22 (GeneID 283576)", "migration robust z-score": -0.04, "nuclei per well, duplicate mean": 5125, "outcome": "inactive"}
{"Target gene": "ADORA1 (GeneID 134)", "migration robust z-score": -0.91, "nuclei per well, duplicate mean": 5276, "outcome": "inactive"}
